Assay results taken from paper PMC8150775, “Repositioning Azelnidipine as a Dual Inhibitor Targeting CD47/SIRPα and TIGIT/PVR Pathways for Cancer Immuno-Therapy” (Biomolecules, 2021).
Results are given in words; binding and its absence hold for the method and conditions named. Some entries that bind do so weakly or less than the wild type. Where a sequence is shown, tags or fusion partners need not be part of it.

Target: T1, murine CD47 on CHOK1-mCD47 cells (mouse) (UniProt Q61735)
T1 sequence: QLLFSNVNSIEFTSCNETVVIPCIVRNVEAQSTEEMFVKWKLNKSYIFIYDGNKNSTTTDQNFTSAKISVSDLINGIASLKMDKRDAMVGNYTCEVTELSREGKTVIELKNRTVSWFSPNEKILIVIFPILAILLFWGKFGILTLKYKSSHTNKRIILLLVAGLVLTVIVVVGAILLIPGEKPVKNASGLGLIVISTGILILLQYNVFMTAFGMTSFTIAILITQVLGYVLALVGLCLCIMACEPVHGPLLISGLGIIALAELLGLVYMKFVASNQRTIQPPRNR
Assay: flow cytometry on cells; blocking assay: Fc-tagged SIRPα or PVR protein, pre-incubated with or without small molecule inhibitor for 30 min at 4 °C, then incubated 30 min with CHOK1-CD47 or CHOK1-TIGIT cells; bound Fc protein detected with PE-conjugated anti-human IgG antibody; positive control without inhibitor; only the binder purified

binding: binds
B1: mouse SIRPα protein, Fc-tagged (Fc fusion, UniProt P97797 32-373)
chain: KELKVTQPEKSVSVAAGDSTVLNCTLTSLLPVGPIRWYRGVGPSRLLIYSFAGEYVPRIRNVSDTTKRNNMDFSIRISNVTPADAGIYYCVKFQKGSSEPDTEIQSGGGTEVYVLAKPSPPEVSGPADRGIPDQKVNFTCKSHGFSPRNITLKWFKDGQELHPLETTVNPSGKNVSYNISSTVRVVLNSMDVNSKVICEVAHITLDRSPLRGIANLSNFIRVSPTVKVTQQSPTSMNQVNLTCRAERFYPEDLQLIWLENGNVSRNDTPKNLTKNTDGTYNYTSLFLVNSSAHREDVVFTCQVKHDQQPAITRNHTVLGFAHSSDQGSMQTFPDNNATHNWN
